Experimental data taken from PubChem BioAssay AID248 (DTP/NCI, 2004).
The list shows only some results of the screen, not a fair sample: its compounds were picked by chemical class. Other doses and runs of a compound may be missing. T/C: endpoint of the treated group in % of that of the vehicle group. For survival time, this PubChem deposit counts one and a half times the control or more as active, and values a quarter to a half above the control carry no call in these data; other NCI protocols may use other cut-offs. Some entries show no survivor count and are marked so; the dose need not have been tolerated. Schedules are NCI's codes, taken here to give the interval after Q, in days (D) or hours (H), and the number of doses after X. Some doses were run more than once; the values are given in rising order. Some schedules carry Z or #; the key to these is not given.

Tested on: L1210 leukemia ip in BDF1 mice, survival T/C
Test: NCI In Vivo Anticancer Drug Screen. Data for tumor model L1210 Leukemia (intraperitoneal) in B6D2F1 (BDF1) mice
Conditions: T/C endpoint: mean survival time, higher T/C = longer survival

Compound: NC(Cc1cccc(N(CCCl)CCCl)c1)C(=O)O (stereo unspecified)
- T/C (dose: 0.12 mg/kg/injection, schedule: Q01DX Z (oral), vehicle: carboxymethylcellulose (CMC)): 117 % of control [survivor count not shown]
- T/C (dose: 0.18 mg/kg/injection, schedule: Q01DX Z (oral), vehicle: carboxymethylcellulose (CMC)): 125 % of control [survivor count not shown]
- T/C (dose: 0.24 mg/kg/injection, schedule: Q01DX001 (ip), vehicle: carboxymethylcellulose (CMC)): 110 % of control [survivor count not shown]
- T/C (dose: 0.24 mg/kg/injection, schedule: Q01DX009 (ip), vehicle: saline): 107 % of control [survivor count not shown]
- T/C (dose: 0.28 mg/kg/injection, schedule: Q01DX Z (oral), vehicle: carboxymethylcellulose (CMC)): 115 % of control [survivor count not shown]
- T/C (dose: 0.29 mg/kg/injection, schedule: Q01DX006 (iv), vehicle: carboxymethylcellulose (CMC)): 114 % of control [survivor count not shown]
- T/C (dose: 0.29 mg/kg/injection, schedule: Q01DX Z (ip), vehicle: carboxymethylcellulose (CMC)): 119 % of control [survivor count not shown]
- T/C (dose: 0.37 mg/kg/injection, schedule: Q01DX001 (ip), vehicle: carboxymethylcellulose (CMC)): 111 % of control [survivor count not shown]
- T/C (dose: 0.43 mg/kg/injection, schedule: Q01DX Z (oral), vehicle: carboxymethylcellulose (CMC)): 125 [survivor count not shown] and 135 % of control [survivor count not shown]
- T/C (dose: 0.44 mg/kg/injection, schedule: Q01DX006 (iv), vehicle: carboxymethylcellulose (CMC)): 111 % of control [survivor count not shown]
- T/C (dose: 0.44 mg/kg/injection, schedule: Q01DX Z (ip), vehicle: carboxymethylcellulose (CMC)): 130 % of control [survivor count not shown]
- T/C (dose: 0.47 mg/kg/injection, schedule: Q01DX009 (ip), vehicle: saline): 117 % of control [survivor count not shown]
- T/C (dose: 0.5 mg/kg/injection, schedule: Q01DX009 (ip), vehicle: carboxymethylcellulose (CMC)): 135 % of control [survivor count not shown]
- T/C (dose: 0.5 mg/kg/injection, schedule: Q01DX009 (oral), vehicle: carboxymethylcellulose (CMC)): 112 % of control [survivor count not shown]
- T/C (dose: 0.5 mg/kg/injection, schedule: Q01DX009 (sc), vehicle: carboxymethylcellulose (CMC)): 115 % of control [survivor count not shown]
- T/C (dose: 0.56 mg/kg/injection, schedule: Q01DX001 (ip), vehicle: carboxymethylcellulose (CMC)): 117 % of control [survivor count not shown]
- T/C (dose: 0.63 mg/kg/injection, schedule: Q01DX010 (ip), vehicle: saline): 110 [survivor count not shown] and 112 % of control [survivor count not shown]
- T/C (dose: 0.66 mg/kg/injection, schedule: Q01DX006 (iv), vehicle: carboxymethylcellulose (CMC)): 109 % of control [survivor count not shown]
- T/C (dose: 0.66 mg/kg/injection, schedule: Q01DX Z (ip), vehicle: carboxymethylcellulose (CMC)): 160 % of control [survivor count not shown]
- T/C (dose: 0.73 mg/kg/injection, schedule: Q01DX Z (oral), vehicle: carboxymethylcellulose (CMC)): 131 % of control [survivor count not shown]
- T/C (dose: 0.8 mg/kg/injection, schedule: Q01DX Z (ip), vehicle: carboxymethylcellulose (CMC)): 159 % of control [survivor count not shown]
- T/C (dose: 0.84 mg/kg/injection, schedule: Q01DX001 (ip), vehicle: carboxymethylcellulose (CMC)): 134 [survivor count not shown] and 140 % of control [survivor count not shown]
- T/C (dose: 0.93 mg/kg/injection, schedule: Q01DX009 (ip), vehicle: other): 131 % of control [survivor count not shown]
- T/C (dose: 1.0 mg/kg/injection, schedule: Q01DX006 (iv), vehicle: carboxymethylcellulose (CMC)): 111 % of control [survivor count not shown]
- T/C (dose: 1.0 mg/kg/injection, schedule: Q01DX009 (ip), vehicle: carboxymethylcellulose (CMC)): 143 % of control [survivor count not shown]
- T/C (dose: 1.0 mg/kg/injection, schedule: Q01DX009 (oral), vehicle: carboxymethylcellulose (CMC)): 119 % of control [survivor count not shown]
- T/C (dose: 1.0 mg/kg/injection, schedule: Q01DX009 (sc), vehicle: carboxymethylcellulose (CMC)): 121 % of control [survivor count not shown]
- T/C (dose: 1.0 mg/kg/injection, schedule: Q01DX Z (im), vehicle: carboxymethylcellulose (CMC)): 117 % of control [survivor count not shown]
- T/C (dose: 1.0 mg/kg/injection, schedule: Q01DX Z (ip), vehicle: carboxymethylcellulose (CMC)): 119 [survivor count not shown] and 127 % of control [survivor count not shown]
- T/C (dose: 1.0 mg/kg/injection, schedule: Q01DX Z (sc), vehicle: carboxymethylcellulose (CMC)): 119 % of control [survivor count not shown]
- T/C (dose: 1.0 mg/kg/injection, schedule: Q## X003 (ip), vehicle: carboxymethylcellulose (CMC)): 113 [survivor count not shown] and 122 % of control [survivor count not shown]
- T/C (dose: 1.0 mg/kg/injection, schedule: Q## X024 (ip), vehicle: carboxymethylcellulose (CMC)): 107 % of control [survivor count not shown]
- T/C (dose: 1.1 mg/kg/injection, schedule: Q01DX Z (oral), vehicle: carboxymethylcellulose (CMC)): 128 % of control [survivor count not shown]
- T/C (dose: 1.2 mg/kg/injection, schedule: Q01DX001 (ip), vehicle: carboxymethylcellulose (CMC)): 146 % of control [survivor count not shown]
- T/C (dose: 1.25 mg/kg/injection, schedule: Q01DX001 (ip), vehicle: saline): 113 % of control [survivor count not shown]
- T/C (dose: 1.25 mg/kg/injection, schedule: Q01DX009 (ip), vehicle: saline): 131 [survivor count not shown] and 134 % of control [survivor count not shown]
- T/C (dose: 1.25 mg/kg/injection, schedule: Q01DX010 (ip), vehicle: saline): 134 [survivor count not shown] and 139 % of control [survivor count not shown]
- T/C (dose: 1.25 mg/kg/injection, schedule: Q01DX Z (ip), vehicle: carboxymethylcellulose (CMC)): 150 % of control [survivor count not shown]
- T/C (dose: 1.6 mg/kg/injection, schedule: Q01DX009 (ip), vehicle: other): 134 % of control [survivor count not shown]
- T/C (dose: 1.7 mg/kg/injection, schedule: Q01DX Z (oral), vehicle: carboxymethylcellulose (CMC)): 128 [survivor count not shown] and 140 % of control [survivor count not shown]
- T/C (dose: 1.9 mg/kg/injection, schedule: Q01DX001 (ip), vehicle: carboxymethylcellulose (CMC)): 128 % of control [survivor count not shown]
- T/C (dose: 2.0 mg/kg/injection, schedule: Q01DX001 (ip), vehicle: carboxymethylcellulose (CMC)): 124 % of control [survivor count not shown]
- T/C (dose: 2.0 mg/kg/injection, schedule: Q01DX009 (ip), vehicle: carboxymethylcellulose (CMC)): 152 % of control [survivor count not shown]
- T/C (dose: 2.0 mg/kg/injection, schedule: Q01DX009 (oral), vehicle: carboxymethylcellulose (CMC)): 127 % of control [survivor count not shown]
- T/C (dose: 2.0 mg/kg/injection, schedule: Q01DX009 (sc), vehicle: carboxymethylcellulose (CMC)): 131 % of control [survivor count not shown]
- T/C (dose: 2.0 mg/kg/injection, schedule: Q01DX Z (im), vehicle: carboxymethylcellulose (CMC)): 132 % of control [survivor count not shown]
- T/C (dose: 2.0 mg/kg/injection, schedule: Q01DX Z (ip), vehicle: carboxymethylcellulose (CMC)): 150 % of control [survivor count not shown]
- T/C (dose: 2.0 mg/kg/injection, schedule: Q01DX Z (sc), vehicle: carboxymethylcellulose (CMC)): 130 % of control [survivor count not shown]
- T/C (dose: 2.0 mg/kg/injection, schedule: Q## X002 (ip), vehicle: carboxymethylcellulose (CMC)): 124 [survivor count not shown] and 139 % of control [survivor count not shown]
- T/C (dose: 2.0 mg/kg/injection, schedule: Q## X002 (oral), vehicle: carboxymethylcellulose (CMC)): 112 % of control [survivor count not shown]
- T/C (dose: 2.0 mg/kg/injection, schedule: Q## X003 (ip), vehicle: carboxymethylcellulose (CMC)): 138 [survivor count not shown] and 141 % of control [survivor count not shown]
- T/C (dose: 2.0 mg/kg/injection, schedule: Q## X016 (ip), vehicle: carboxymethylcellulose (CMC)): 107 % of control [survivor count not shown]
- T/C (dose: 2.0 mg/kg/injection, schedule: Q## X024 (ip), vehicle: carboxymethylcellulose (CMC)): 119 % of control [survivor count not shown]
- T/C (dose: 2.5 mg/kg/injection, schedule: Q01DX001 (ip), vehicle: saline): 103 % of control [survivor count not shown]
- T/C (dose: 2.5 mg/kg/injection, schedule: Q01DX009 (ip), vehicle: saline): 146 [survivor count not shown] and 162 % of control [survivor count not shown]
- T/C (dose: 2.5 mg/kg/injection, schedule: Q01DX010 (ip), vehicle: saline): 159 [survivor count not shown] and 181 % of control [survivor count not shown]
- T/C (dose: 2.6 mg/kg/injection, schedule: Q01DX Z (oral), vehicle: carboxymethylcellulose (CMC)): 143 % of control [survivor count not shown]
- T/C (dose: 2.66 mg/kg/injection, schedule: Q01DX009 (ip), vehicle: other): 160 % of control [survivor count not shown]
- T/C (dose: 2.9 mg/kg/injection, schedule: Q01DX001 (ip), vehicle: carboxymethylcellulose (CMC)): 109 [survivor count not shown] and 134 % of control [survivor count not shown]
- T/C (dose: 4.0 mg/kg/injection, schedule: Q01DX001 (ip), vehicle: carboxymethylcellulose (CMC)): 142 [survivor count not shown] and 151 % of control [survivor count not shown]
- T/C (dose: 4.0 mg/kg/injection, schedule: Q01DX001 (oral), vehicle: carboxymethylcellulose (CMC)): 112 % of control [survivor count not shown]
